The values that follow come from the odorant receptor screen of Mainland et al. (2015).

Test systems include OR6K2 clone 1041; OR6K3 clone 1485; OR6K6 clone 1348; OR6K6 clone 1392; OR6M1 clone 1182; OR6N2 clone 1027; OR6P1 clone 1034; OR6Q1 clone 1231; OR6T1 clone 1188; OR6V1 clone 1730; OR6X1 clone 1239; OR6Y1 V252I clone 1025; OR7A10 clone 1104; OR7A17 clone 1300; OR7A5 clone 1469; OR7C1 clone 1299.
What all share (assay): odorant receptor activation (CRE luciferase / Renilla) (fold of no-odor wells); higher = more activation
What all share (details): 100 µM

For assay [1], the system named is OR6J1 R121H/T124A/R226H/P250S/L274S/V279L clone 1714.
Assay [2] concerns OR6K3 P228S/P248L clone 1045.
Assay [3] deals with OR6N1 I194T/F245L/Q261R/R293H clone 1038.
For assay [4], the system named is OR6S1 T42I/V156I/R237H clone 1271.

Each structure is given as a SMILES string. Several values for one entry are separate records, joined by “and”; a condition that tells them apart may be missing. Equal entries are not always repeated. The list shows a part of the results. Single wells; the ratio to wells without odorant was worked out here, and repeats agree poorly.

For the molecule `CCOc1cc(C=O)ccc1O` [ethyl vanillin], the odorant receptor activation in assay [1] was 0.779; in the assay on OR6K2 clone 1041, 1.35; in assay [2], 1.01 and 1.13; with OR6K3 clone 1485, 1.1 and 2.79 and 1.47; in the assay with OR6K6 clone 1348, 0.881 and 1.89 and 1.23; in the assay with OR6K6 clone 1392, 1.15 and 1.31. Moreover, the odorant receptor activation is 1.79 and 1.21 in the assay on OR6M1 clone 1182; 1.74 and 0.865 in [3]; 0.725 and 1.04 in the assay with OR6N2 clone 1027; 1.03 and 0.923 in the assay on OR6P1 clone 1034; 1.42 with OR6Q1 clone 1231; 1.06 and 1.24 in the assay on OR6T1 clone 1188. Further, the odorant receptor activation in the assay with OR6V1 clone 1730 is 0.861; in the assay with OR6X1 clone 1239 it was 0.716; in the assay on OR6Y1 V252I clone 1025, 1.48 and 1.46; in the assay on OR7A10 clone 1104 it was 1.02 and 0.882; with OR7A17 clone 1300, 1.37 and 0.841; in the assay with OR7A5 clone 1469 it was 1.45 and 1.86 and 1.27. Also, the odorant receptor activation in the assay on OR7C1 clone 1299 is 1.87 and 1.21.

`CS` [methanethiol]: the odorant receptor activation worked out at 1.9 in assay [1]; 1.14 in the assay on OR6K2 clone 1041; 1.22 in assay [2]; 0.817 in the assay on OR6K3 clone 1485; 0.904 with OR6K6 clone 1348; 0.673 with OR6K6 clone 1392. Further, the odorant receptor activation was 1.01 in the assay with OR6M1 clone 1182; 1.24 in assay [3]; 1.12 in the assay with OR6N2 clone 1027; 1.18 in the assay with OR6P1 clone 1034; 0.708 in the assay with OR6Q1 clone 1231; 0.846 in assay [4]. Moreover, the odorant receptor activation in the assay with OR6T1 clone 1188 turned out to be 0.932; with OR6V1 clone 1730, 0.779; with OR6X1 clone 1239, 0.854; in the assay on OR6Y1 V252I clone 1025, 1.26; in the assay on OR7A10 clone 1104, 1.15; in the assay on OR7A17 clone 1300 it was 1.07. Further, the odorant receptor activation in the assay with OR7A5 clone 1469 is 0.759; in the assay on OR7C1 clone 1299 it was 1.24.

With `CCCCOC(C)=O` [butyl acetate], the odorant receptor activation in assay [1] was 1.25; in the assay with OR6K2 clone 1041, 1.19; in assay [2], 1.01; in the assay on OR6K3 clone 1485, 0.916; with OR6K6 clone 1348 it was 0.844; in the assay on OR6K6 clone 1392 it was 0.165. Besides, the odorant receptor activation with OR6M1 clone 1182 turned out to be 0.899; in assay [3], 1; in the assay on OR6N2 clone 1027, 0.739; in the assay with OR6P1 clone 1034 it was 1.27; with OR6Q1 clone 1231 it was 1.14; in assay [4], 0.732. The odorant receptor activation in the assay with OR6T1 clone 1188 was determined as 1.19; in the assay with OR6V1 clone 1730, 0.677; in the assay with OR6X1 clone 1239, 0.759; in the assay on OR6Y1 V252I clone 1025, 0.93; in the assay on OR7A10 clone 1104, 1.01; in the assay on OR7A17 clone 1300, 0.872. Further, the odorant receptor activation with OR7A5 clone 1469 was determined as 0.809; with OR7C1 clone 1299, 0.956.

Consider `CCC(C)=O` [2-butanone], for which the odorant receptor activation in assay [1] amounted to 0.988; in the assay on OR6K2 clone 1041 it was 3.49; in assay [2] it was 2.38; with OR6K3 clone 1485, 1.11; in the assay with OR6K6 clone 1348, 0.858; in the assay on OR6K6 clone 1392, 1.06. Moreover, the odorant receptor activation in the assay on OR6M1 clone 1182 was 1.15; in assay [3], 5.05; with OR6N2 clone 1027, 2.87; with OR6P1 clone 1034, 3.06; in the assay with OR6Q1 clone 1231, 0.789; in assay [4], 1.28. The odorant receptor activation worked out at 1.43 in the assay with OR6T1 clone 1188; 0.764 with OR6V1 clone 1730; 1.07 in the assay with OR6X1 clone 1239; 2.79 in the assay with OR6Y1 V252I clone 1025; 6.62 with OR7A10 clone 1104; 1.06 in the assay on OR7A17 clone 1300. In addition, the odorant receptor activation in the assay with OR7A5 clone 1469 stood at 1.15; with OR7C1 clone 1299 it was 1.02.
